In the supplement of paper PMC7666118:
The other results are listed elsewhere or left out.

Chains of the proteins cited; added tags and fusions are not shown. Lines headed by an entry give the natural chain unless they say otherwise; changes in a name come on top.
UniProt Q8WXE1: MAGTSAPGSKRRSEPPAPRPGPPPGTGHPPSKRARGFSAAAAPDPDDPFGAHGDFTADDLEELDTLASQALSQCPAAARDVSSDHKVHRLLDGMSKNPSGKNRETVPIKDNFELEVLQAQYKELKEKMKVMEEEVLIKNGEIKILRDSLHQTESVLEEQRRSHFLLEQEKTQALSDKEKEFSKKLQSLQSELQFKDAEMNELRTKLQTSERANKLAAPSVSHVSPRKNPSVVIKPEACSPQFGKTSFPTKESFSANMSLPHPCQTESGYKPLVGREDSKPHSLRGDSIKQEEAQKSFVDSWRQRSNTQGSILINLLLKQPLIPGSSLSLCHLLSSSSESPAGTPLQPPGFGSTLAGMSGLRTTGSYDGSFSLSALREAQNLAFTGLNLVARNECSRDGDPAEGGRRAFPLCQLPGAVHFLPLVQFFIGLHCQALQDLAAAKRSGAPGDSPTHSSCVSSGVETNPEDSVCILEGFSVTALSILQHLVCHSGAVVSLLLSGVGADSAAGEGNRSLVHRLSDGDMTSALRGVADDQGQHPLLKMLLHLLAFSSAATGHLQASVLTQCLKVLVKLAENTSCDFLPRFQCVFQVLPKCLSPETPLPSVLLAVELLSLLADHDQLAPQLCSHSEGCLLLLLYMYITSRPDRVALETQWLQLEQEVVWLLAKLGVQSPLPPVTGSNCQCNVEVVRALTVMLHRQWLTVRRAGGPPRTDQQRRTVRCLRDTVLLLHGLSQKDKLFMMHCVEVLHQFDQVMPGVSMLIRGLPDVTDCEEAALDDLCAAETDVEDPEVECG
UniProt Q7Z3E2: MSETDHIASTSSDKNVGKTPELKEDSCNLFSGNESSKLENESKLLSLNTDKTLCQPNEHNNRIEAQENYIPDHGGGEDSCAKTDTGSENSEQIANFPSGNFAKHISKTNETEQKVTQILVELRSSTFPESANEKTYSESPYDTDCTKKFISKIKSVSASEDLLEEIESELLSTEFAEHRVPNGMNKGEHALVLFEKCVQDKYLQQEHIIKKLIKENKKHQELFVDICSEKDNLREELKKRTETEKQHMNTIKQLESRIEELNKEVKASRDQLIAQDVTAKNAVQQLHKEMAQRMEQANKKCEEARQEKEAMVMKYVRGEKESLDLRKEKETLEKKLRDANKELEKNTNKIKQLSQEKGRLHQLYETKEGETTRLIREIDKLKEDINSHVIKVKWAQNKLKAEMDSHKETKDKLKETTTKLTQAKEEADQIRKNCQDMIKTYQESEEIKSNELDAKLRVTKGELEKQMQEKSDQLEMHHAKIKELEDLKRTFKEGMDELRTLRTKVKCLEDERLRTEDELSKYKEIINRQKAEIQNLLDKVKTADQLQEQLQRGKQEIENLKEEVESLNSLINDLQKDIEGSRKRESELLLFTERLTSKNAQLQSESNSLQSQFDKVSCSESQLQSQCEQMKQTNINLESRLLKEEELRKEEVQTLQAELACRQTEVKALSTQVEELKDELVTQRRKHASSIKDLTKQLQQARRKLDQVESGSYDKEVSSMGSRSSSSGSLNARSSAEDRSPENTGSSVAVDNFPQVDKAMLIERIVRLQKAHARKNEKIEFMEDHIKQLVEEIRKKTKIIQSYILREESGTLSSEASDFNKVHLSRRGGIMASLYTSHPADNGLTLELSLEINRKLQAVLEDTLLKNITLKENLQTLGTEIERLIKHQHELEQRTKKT
UniProt Q70Z53: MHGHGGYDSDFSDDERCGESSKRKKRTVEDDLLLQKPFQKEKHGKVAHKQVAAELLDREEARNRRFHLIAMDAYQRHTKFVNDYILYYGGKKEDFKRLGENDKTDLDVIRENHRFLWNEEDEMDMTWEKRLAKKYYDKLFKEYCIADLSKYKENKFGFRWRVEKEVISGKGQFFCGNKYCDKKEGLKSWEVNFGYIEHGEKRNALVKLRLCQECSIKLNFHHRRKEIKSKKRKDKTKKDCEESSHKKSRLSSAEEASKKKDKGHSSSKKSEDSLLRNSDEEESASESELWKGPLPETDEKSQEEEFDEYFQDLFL
UniProt O95563: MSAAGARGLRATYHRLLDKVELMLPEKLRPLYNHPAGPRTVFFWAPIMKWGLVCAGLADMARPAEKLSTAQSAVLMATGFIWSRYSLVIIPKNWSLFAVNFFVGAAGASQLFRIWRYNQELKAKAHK
UniProt P54252: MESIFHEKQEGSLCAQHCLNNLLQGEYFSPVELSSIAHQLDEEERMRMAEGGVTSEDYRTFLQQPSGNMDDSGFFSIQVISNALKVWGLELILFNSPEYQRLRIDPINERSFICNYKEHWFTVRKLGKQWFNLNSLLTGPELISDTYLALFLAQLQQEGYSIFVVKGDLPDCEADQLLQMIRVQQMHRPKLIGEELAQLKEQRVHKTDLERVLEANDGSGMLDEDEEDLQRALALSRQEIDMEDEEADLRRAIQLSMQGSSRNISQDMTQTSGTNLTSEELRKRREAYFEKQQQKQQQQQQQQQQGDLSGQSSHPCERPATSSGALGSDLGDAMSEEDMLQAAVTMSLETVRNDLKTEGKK
UniProt Q9UI12, whole entry: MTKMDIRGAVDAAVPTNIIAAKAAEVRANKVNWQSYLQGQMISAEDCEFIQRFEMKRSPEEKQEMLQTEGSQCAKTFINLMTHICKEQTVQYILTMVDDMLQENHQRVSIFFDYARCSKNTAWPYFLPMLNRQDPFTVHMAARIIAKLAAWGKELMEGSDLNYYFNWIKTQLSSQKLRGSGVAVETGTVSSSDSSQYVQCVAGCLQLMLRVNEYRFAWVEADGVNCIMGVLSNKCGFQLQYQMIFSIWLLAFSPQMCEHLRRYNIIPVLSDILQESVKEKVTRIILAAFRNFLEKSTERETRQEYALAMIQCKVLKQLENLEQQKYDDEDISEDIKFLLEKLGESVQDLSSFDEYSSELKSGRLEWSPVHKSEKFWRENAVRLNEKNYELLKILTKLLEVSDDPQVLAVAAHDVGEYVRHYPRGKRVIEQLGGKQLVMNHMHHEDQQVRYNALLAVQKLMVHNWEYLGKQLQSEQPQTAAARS
UniProt Q9NVT9: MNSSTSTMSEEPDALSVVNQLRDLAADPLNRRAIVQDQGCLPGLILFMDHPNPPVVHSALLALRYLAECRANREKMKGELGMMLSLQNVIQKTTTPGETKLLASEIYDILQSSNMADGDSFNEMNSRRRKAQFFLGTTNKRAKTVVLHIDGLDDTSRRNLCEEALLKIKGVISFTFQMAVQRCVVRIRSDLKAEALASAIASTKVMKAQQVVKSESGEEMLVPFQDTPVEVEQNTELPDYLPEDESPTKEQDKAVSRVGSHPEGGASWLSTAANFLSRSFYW
UniProt Q9H3H3: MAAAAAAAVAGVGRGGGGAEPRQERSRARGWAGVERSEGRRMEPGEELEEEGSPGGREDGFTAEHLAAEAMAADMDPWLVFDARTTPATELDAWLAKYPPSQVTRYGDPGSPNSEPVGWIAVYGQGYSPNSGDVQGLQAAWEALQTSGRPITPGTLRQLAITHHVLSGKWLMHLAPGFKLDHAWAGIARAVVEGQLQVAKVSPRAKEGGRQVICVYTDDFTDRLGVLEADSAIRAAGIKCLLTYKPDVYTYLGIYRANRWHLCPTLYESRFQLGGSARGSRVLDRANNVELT
UniProt P00846: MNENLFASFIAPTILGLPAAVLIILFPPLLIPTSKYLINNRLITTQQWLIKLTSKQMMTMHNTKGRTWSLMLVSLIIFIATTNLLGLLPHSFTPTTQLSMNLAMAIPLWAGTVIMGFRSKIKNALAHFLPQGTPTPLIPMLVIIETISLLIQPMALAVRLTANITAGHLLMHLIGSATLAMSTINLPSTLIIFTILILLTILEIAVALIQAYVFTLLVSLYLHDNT
UniProt Q9UBW5: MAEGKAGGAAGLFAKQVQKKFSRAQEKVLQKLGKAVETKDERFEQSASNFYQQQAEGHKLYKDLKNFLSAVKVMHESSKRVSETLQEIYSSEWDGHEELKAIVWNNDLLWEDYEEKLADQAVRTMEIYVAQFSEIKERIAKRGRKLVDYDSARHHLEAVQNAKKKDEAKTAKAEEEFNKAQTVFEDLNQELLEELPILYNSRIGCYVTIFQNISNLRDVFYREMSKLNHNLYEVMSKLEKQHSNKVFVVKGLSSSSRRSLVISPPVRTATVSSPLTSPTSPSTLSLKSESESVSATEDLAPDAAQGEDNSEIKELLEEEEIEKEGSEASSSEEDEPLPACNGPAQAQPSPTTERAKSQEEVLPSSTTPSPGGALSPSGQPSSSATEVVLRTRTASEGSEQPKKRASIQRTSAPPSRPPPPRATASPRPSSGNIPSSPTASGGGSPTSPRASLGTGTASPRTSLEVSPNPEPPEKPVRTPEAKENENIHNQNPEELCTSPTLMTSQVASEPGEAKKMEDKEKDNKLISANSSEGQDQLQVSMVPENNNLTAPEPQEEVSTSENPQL
UniProt Q9Y5K8, whole entry: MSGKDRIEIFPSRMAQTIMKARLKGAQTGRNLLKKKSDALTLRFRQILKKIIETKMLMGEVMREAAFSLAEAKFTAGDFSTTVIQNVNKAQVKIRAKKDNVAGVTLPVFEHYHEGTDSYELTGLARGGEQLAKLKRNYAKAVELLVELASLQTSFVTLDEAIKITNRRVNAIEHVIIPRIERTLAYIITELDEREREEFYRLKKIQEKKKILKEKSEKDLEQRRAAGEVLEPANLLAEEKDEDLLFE
UniProt P61421, whole entry: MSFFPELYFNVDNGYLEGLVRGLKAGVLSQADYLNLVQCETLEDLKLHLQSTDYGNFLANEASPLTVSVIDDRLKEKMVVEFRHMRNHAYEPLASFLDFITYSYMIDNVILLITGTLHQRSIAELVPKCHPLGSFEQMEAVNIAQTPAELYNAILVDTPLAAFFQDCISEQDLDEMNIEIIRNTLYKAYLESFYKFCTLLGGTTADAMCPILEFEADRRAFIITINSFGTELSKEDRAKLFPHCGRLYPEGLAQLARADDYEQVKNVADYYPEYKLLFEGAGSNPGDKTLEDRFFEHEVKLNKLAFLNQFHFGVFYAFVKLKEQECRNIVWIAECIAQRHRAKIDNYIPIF
UniProt P21283, whole entry: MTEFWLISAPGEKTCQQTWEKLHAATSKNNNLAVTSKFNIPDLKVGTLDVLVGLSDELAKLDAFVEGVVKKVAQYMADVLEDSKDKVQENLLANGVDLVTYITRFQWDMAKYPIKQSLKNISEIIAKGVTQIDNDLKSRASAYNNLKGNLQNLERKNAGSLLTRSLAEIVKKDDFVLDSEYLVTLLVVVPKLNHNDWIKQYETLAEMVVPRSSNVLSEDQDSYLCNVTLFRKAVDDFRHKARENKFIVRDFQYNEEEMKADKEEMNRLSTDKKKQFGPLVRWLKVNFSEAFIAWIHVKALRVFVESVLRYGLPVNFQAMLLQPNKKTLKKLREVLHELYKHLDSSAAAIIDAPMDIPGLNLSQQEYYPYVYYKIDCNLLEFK
UniProt Q9H0W9: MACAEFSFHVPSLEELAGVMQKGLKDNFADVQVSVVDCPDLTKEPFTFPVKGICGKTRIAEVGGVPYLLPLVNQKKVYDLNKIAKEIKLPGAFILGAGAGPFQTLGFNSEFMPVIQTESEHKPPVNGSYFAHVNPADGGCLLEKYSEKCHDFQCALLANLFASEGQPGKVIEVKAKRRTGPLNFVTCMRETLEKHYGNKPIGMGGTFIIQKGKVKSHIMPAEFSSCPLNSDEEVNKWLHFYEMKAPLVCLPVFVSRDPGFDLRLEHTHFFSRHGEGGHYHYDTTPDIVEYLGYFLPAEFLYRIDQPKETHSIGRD
UniProt P24539: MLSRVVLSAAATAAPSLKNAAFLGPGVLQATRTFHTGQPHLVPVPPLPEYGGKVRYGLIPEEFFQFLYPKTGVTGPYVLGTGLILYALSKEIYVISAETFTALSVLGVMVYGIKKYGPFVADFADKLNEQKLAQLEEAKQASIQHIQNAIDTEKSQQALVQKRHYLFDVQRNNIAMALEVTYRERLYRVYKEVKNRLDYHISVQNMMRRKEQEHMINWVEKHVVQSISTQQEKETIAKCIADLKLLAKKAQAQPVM
UniProt Q13825: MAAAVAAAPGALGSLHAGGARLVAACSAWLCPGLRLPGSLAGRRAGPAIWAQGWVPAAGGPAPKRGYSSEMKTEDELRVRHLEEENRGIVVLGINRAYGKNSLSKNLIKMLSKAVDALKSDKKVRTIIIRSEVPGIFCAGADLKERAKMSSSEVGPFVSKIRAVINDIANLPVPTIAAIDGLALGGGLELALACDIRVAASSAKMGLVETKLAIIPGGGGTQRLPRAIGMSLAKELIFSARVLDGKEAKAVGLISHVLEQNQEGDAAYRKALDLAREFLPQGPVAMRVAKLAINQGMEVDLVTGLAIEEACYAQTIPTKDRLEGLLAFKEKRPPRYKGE
UniProt Q7L266: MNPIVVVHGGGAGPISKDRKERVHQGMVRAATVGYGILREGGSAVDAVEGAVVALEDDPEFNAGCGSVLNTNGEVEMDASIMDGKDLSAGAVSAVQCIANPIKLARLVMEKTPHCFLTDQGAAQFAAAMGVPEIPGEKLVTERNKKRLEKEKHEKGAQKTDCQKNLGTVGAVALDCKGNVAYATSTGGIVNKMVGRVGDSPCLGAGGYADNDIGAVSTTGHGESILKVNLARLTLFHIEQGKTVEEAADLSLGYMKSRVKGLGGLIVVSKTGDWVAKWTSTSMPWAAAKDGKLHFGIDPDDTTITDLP

Compound: COc1ccc(Cn2ccc3ccc(C(=O)NO)cc32)cc1
Test: dose-dependent thermal stabilisation call (2D-TPP, DLPTP, 10% FDR) (binary (1 = stabilised)); higher = stabilised by the compound
Conditions: system: HL-60 intact cells; concentration range 0.04-10 µM

Row | Target | dose-dependent thermal stabilisation call
1 | ASCC2 (UniProt Q9H1I8) | inactive: 0
2 | ATRIP (UniProt Q8WXE1) | inactive: 0
3 | C10ORF118 (UniProt Q7Z3E2) | inactive: 0
4 | UniProt B4E0R8_HUMAN | inactive: 0
5 | C10ORF4 (UniProt Q70Z53) | inactive: 0
6 | BRP44 (UniProt O95563) | inactive: 0
7 | BCKDHA (UniProt P12694) | inactive: 0
8 | ATXN3 (UniProt P54252) | inactive: 0
9 | ATP6V1H (UniProt Q9UI12) | inactive: 0
10 | ARMC1 (UniProt Q9NVT9) | inactive: 0
11 | BRD7 (UniProt Q9NPI1) | inactive: 0
12 | ATP5S (UniProt Q99766) | inactive: 0
13 | ATP13A1 (UniProt Q9HD20) | inactive: 0
14 | C11ORF68 (UniProt Q9H3H3) | inactive: 0
15 | BICD2 (UniProt Q8TD16) | inactive: 0
16 | BCAS3 (UniProt Q9H6U6) | inactive: 0
17 | ATP6 (UniProt P00846) | inactive: 0
18 | BRCA2 (UniProt P51587) | inactive: 0
19 | BXDC2 (UniProt Q8TDN6) | inactive: 0

Row | Target | dose-dependent thermal stabilisation call
20 | BIN2 (UniProt Q9UBW5) | inactive: 0
21 | ATP6V1D (UniProt Q9Y5K8) | inactive: 0
22 | ATP6V0D1 (UniProt P61421) | inactive: 0
23 | BACH1 (UniProt O14867) | inactive: 0
24 | ARL6 (UniProt Q9H0F7) | inactive: 0
25 | AVL9 (UniProt Q8NBF6) | inactive: 0
26 | ARL8A (UniProt Q96BM9) | inactive: 0
27 | B3GALTL (UniProt Q6Y288) | inactive: 0
28 | ATF7IP (UniProt Q6VMQ6) | inactive: 0
29 | B4GALT1 (UniProt P15291) | inactive: 0
30 | ATP6V1E1 (UniProt P36543) | inactive: 0
31 | ATG3 (UniProt Q9NT62) | inactive: 0
32 | ATP6V1C1 (UniProt P21283) | inactive: 0
33 | C11ORF54 (UniProt Q9H0W9) | active: 1
34 | ATP5F1 (UniProt P24539) | inactive: 0
35 | AUH (UniProt Q13825) | inactive: 0
36 | ASRGL1 (UniProt Q7L266) | inactive: 0
37 | C11ORF58 (UniProt O00193) | inactive: 0

Some of the entries so far, field by field:
B3GALTL (UniProt Q6Y288)
  dose-dependent thermal stabilisation call: inactive: 0
ATF7IP (UniProt Q6VMQ6)
  dose-dependent thermal stabilisation call: inactive: 0
